Laboratory results reported in US20120046329A1, “MODULATORS OF NOD1 AND NOD2 SIGNALING, METHODS OF IDENTIFYING MODULATORS OF NOD1 AND NOD2 SIGNALING, AND USES THEREOF” (Sanford-Burnham Medical Research Institute, priority 2010, published 2012).
For some of these results: At least one structure is not confirmed: it was looked up by name or label, or the drawing left a doubt. Some results were stated once for a whole list of compounds, not compound by compound.

Chains of the proteins cited; added tags and fusions are not shown.
UniProt Q9HC29, whole entry: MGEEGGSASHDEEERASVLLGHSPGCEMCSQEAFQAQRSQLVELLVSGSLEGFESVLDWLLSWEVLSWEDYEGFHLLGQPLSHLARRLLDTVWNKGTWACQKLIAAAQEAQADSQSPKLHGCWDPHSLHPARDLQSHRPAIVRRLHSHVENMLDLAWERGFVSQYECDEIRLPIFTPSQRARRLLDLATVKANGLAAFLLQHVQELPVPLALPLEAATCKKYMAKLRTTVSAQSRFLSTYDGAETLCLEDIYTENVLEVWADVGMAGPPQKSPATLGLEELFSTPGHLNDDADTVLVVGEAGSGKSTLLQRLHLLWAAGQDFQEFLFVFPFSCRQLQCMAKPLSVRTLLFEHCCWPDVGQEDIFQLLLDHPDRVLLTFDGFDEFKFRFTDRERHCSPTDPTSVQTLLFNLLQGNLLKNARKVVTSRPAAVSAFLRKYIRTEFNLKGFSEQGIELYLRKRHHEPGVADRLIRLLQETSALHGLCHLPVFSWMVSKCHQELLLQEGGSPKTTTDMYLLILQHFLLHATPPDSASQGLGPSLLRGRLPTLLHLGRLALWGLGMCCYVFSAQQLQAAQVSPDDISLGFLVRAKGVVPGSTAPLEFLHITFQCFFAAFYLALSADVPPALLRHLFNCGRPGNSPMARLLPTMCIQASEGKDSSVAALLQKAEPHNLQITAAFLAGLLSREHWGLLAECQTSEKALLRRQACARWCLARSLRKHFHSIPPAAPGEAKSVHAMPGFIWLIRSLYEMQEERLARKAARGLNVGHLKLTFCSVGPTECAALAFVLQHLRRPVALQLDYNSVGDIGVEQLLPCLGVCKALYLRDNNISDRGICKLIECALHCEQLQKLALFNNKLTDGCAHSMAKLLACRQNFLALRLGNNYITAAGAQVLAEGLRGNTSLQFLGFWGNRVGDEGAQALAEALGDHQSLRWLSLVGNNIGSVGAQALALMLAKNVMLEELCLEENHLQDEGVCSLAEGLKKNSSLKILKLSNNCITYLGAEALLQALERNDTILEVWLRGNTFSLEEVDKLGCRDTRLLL

Key:
NOD2 = NOD2 (Homo sapiens, UniProt Q9HC29); experiment: NOD2 NF-κB luciferase reporter assay, HEK293T cells over-expressing NOD2; type: cell-based; parameters: expressed in transfected cells; host or cells: HEK293T NF-κB-luciferase cells, lentiviral transduction, sorted by EGFP; details: LOPAC screen, 384-well, compounds at 5 μM
Experimental: The compounds of these inventions were identified using cell-based high through put (FITS) assays with an NO-κB-driven luciferase reporter gene as a measure of NOD1 or NOD2 activity.
Plates were then incubated for 60 minutes at room temperature. […] Final concentration of test compounds in assay was 4 μM. Final DMSO concentration was 1%. […] After incubation, plates were removed from incubator and allowed to equilibrate to room temperature (10-15 minutes). Three microliters of Steady-Glo® luciferase assay detection reagent (Promega) was added to entire plate using Multidrop Combi and immediately centrifuged for 30 seconds on a VSpin™ integrated microplate centrifuge at 1500 rpm (Velocity11/Agilent Technologies) and incubated for 20 minutes at room temperature. Luminescence was read on a Viewlux microplate imager (PerkinElmer). For the purpose of a single concentration primary NOD2 counter-screen, a stable line based on the HEK293T-NF-κB-Luc constitutively over-expressing NOD2 was developed as a surrogate. Experimental procedures were followed but in the absence of any inducer.
Development of NOD2 cell-based luciferase assay. […] The Z′ factor was determined to be 0.71, which is sufficiently robust for HTS (see FIG. 15). […]
Luciferase-based primary assays. […] After a ten minute incubation at room temperature, light emission was measured with the Analyst™ Microplate reader (LJL Biosystems).

NOD1 = molecular target: T1, NOD1 (Homo sapiens, UniProt Q9Y239); experiment: NOD1 NF-κB luciferase reporter assay, γ-tri-DAP-stimulated HEK293T cells
T1 sequence (Q9Y239 1-953): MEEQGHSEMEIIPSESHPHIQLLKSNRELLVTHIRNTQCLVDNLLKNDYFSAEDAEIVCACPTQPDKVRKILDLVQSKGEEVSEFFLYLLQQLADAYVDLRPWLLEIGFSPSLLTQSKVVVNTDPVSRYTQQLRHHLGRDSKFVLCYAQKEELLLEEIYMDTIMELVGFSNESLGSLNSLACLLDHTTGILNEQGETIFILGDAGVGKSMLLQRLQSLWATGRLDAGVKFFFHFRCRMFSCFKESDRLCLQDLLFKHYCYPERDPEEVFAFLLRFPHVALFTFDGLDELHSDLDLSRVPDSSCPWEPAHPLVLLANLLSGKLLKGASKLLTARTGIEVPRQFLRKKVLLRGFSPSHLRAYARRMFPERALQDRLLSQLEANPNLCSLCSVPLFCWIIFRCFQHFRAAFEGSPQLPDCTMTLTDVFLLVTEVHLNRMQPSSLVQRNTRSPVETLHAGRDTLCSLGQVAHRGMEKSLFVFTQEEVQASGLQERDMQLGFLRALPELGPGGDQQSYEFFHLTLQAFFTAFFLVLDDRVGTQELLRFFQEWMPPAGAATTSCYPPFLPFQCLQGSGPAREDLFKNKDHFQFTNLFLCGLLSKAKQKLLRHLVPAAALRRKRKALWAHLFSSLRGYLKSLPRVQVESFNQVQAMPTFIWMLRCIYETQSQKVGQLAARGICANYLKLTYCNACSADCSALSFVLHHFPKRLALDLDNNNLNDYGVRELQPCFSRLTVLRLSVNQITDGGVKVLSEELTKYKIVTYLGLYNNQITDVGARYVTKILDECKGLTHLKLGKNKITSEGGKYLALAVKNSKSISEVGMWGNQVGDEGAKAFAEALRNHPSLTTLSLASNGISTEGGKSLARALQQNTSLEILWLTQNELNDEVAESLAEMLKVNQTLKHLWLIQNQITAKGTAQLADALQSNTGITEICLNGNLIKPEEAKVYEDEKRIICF

Compound | Luciferase induction (agonists), hit cut-off (NOD2) [%] | Luciferase induction (NF-κB agonists), hit cut-off (NOD1; LOPAC screen, 384-well, compounds at 4 μM) [%] | EC50 (NOD1; read-out: Half-maximal κB-dependent luciferase activity, 10^4 cells per well, inducer titration) [nM]
COc1cc([C@@H]2c3cc4c(cc3[C@@H](O[C@@H]3O[C@@H]5CO[C@@H](C)O[C@H]5[C@H](O)[C@H]3O)[C@H]3COC(=O)[C@H]23)OCO4)cc(OC)c1O [etoposide] | ≥ 50 | – | –
CC(=O)[C@]1(O)Cc2c(O)c3c(c(O)c2[C@@H](O[C@H]2C[C@H](N)[C@H](O)[C@H](C)O2)C1)C(=O)c1ccccc1C3=O [idarubicin, reference compound] | ≥ 50 | ≥ 90 | –
C[C@H](N)C(=O)N[C@H](CCC(=O)N[C@@H](CCC[C@@H](N)C(=O)O)C(=O)O)C(=O)O [γ-tri-DAP, Ala-γ-Glu-diaminopimelic acid, reference compound] | – | – | ~1920
